Data as given in US4547370A, “GnRH Antagonists” (The Salk Institute For Biological Studies, priority 1983, dated 1985).
Not every detail of the peptide structures is certain; ends, links or a residue may be inferred. Numbered stars: 1 amine (or outer) side, 2 acyl side, 3 side chain; on linkers, the order of the positions; unused ones are H or OH. Square brackets hold non-standard residues; d marks the D form. Peptide text beside a SMILES is read from it. X1 = C[C@](Cc1ccc(Cl)cc1)(N[*:1])C(=O)[*:2]; d2Nal = N[C@H](Cc1ccc2ccccc2c1)C(=O)O

System: ovulation in female rats
Experiment: in vivo test of effectiveness to prevent ovulation in female rats
Settings: injected in corn oil at about noon on the day of proestrous, mature female Sprague-Dawley rats, rats ovulating/rats treated

## CC(=O)N[C@H](Cc1ccc2ccccc2c1)C(=O)N[C@](C)(Cc1ccc(Cl)cc1)C(=O)N[C@H](Cc1c[nH]c2ccccc12)C(=O)N[C@@H](CO)C(=O)N[C@@H](CCCNC(=N)N)C(=O)N[C@H](CCCNC(=N)N)C(=O)N[C@@H](CC(C)C)C(=O)N[C@@H](CCCNC(=N)N)C(=O)N1CCC[C@H]1C(=O)N[C@H](C)C(N)=O [Peptide No. 1, [Ac-β-D-2NAL^1, C^α Me-4Cl-D-Phe^2, D-Trp^3, Arg^5, D-Arg^6, D-Ala^10]-GnRH] (Ac-[d2Nal][X1][dW]SR[dR]LRP[dA]-NH2)
Dose 1 μg
  No. Ovulating: 9/10
Dose 2.5 μg
  No. Ovulating: 0/8

## CC(=O)N[C@H](Cc1ccc2ccccc2c1)C(=O)N[C@](C)(Cc1ccc(Cl)cc1)C(=O)N[C@H](Cc1c[nH]c2ccccc12)C(=O)N[C@@H](CO)C(=O)N[C@@H](CCCNC(=N)N)C(=O)N[C@H](Cc1ccc(O)cc1)C(=O)N[C@@H](CC(C)C)C(=O)N[C@@H](CCCNC(=N)N)C(=O)N1CCC[C@H]1C(=O)N[C@H](C)C(N)=O [Peptide No. 2] (Ac-[d2Nal][X1][dW]SR[dY]LRP[dA]-NH2)
Dose 1 μg
  No. Ovulating: 9/10
Dose 2.5 μg
  No. Ovulating: 0/8

## CC(=O)N[C@H](Cc1ccc2ccccc2c1)C(=O)N[C@](C)(Cc1ccc(Cl)cc1)C(=O)N[C@H](Cc1c[nH]c2ccccc12)C(=O)N[C@@H](CO)C(=O)N[C@@H](CCCNC(=N)N)C(=O)N[C@H](Cc1ccc2ccccc2c1)C(=O)N[C@@H](CC(C)C)C(=O)N[C@@H](CCCNC(=N)N)C(=O)N1CCC[C@H]1C(=O)N[C@H](C)C(N)=O [compound 3] (Ac-[d2Nal][X1][dW]SR[d2Nal]LRP[dA]-NH2)
Dose 1 μg
  No. Ovulating: 6/6
Dose 2.5 μg
  No. Ovulating: 5/10
